Measurements as given in the supplement of paper PMC12823440, “Inhibitors supercharge kinase turnover through native proteolytic circuits” (Nature, 2025).
Structures can show the parent of a compound that is named as a salt. This is one part of the list. Hit calls seldom repeat between salt and free forms of one compound.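 Kinases were expressed as nanoluciferase fusions in K562 cells and luminescence was read every 4 h between 2 and 18 h as percent of control, DMSO set to 100% and a positive control to 0%. A time point counts as decreased when the signal drops significantly (2 sigma). The hit call is the authors' own, does not follow from the count of time points alone, and its rule is not shown.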

Sequences of proteins named here, by UniProt entry; tags and fusion partners are left off. A change or cut given only in a name is not applied to a line headed by its entry.
UniProt P29317, whole entry: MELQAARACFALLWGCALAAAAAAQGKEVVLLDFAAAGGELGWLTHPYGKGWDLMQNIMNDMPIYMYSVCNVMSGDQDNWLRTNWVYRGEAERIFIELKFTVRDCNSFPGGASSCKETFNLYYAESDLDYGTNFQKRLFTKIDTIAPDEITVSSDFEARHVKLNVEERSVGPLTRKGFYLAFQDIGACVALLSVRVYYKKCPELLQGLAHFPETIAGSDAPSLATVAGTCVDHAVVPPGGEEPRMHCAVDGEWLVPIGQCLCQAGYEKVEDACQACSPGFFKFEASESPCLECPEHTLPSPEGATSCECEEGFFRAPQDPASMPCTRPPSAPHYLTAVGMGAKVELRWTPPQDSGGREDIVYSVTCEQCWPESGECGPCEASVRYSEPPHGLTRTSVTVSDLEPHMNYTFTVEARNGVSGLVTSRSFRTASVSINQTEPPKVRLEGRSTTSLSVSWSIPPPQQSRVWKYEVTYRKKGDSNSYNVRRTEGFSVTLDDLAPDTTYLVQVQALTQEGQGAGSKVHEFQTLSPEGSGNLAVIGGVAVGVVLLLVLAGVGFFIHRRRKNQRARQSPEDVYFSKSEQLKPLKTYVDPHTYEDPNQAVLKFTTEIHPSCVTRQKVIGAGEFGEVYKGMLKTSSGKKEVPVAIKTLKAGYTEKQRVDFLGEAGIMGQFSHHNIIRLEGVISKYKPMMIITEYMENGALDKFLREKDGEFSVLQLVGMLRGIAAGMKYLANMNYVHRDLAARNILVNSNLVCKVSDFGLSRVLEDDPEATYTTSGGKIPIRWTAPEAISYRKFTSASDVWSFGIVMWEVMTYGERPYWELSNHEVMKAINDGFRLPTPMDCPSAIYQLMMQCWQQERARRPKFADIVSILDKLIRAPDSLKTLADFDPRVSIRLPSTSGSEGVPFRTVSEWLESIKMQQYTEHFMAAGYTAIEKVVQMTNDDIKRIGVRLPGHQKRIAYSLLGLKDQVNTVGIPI
UniProt P21860, whole entry: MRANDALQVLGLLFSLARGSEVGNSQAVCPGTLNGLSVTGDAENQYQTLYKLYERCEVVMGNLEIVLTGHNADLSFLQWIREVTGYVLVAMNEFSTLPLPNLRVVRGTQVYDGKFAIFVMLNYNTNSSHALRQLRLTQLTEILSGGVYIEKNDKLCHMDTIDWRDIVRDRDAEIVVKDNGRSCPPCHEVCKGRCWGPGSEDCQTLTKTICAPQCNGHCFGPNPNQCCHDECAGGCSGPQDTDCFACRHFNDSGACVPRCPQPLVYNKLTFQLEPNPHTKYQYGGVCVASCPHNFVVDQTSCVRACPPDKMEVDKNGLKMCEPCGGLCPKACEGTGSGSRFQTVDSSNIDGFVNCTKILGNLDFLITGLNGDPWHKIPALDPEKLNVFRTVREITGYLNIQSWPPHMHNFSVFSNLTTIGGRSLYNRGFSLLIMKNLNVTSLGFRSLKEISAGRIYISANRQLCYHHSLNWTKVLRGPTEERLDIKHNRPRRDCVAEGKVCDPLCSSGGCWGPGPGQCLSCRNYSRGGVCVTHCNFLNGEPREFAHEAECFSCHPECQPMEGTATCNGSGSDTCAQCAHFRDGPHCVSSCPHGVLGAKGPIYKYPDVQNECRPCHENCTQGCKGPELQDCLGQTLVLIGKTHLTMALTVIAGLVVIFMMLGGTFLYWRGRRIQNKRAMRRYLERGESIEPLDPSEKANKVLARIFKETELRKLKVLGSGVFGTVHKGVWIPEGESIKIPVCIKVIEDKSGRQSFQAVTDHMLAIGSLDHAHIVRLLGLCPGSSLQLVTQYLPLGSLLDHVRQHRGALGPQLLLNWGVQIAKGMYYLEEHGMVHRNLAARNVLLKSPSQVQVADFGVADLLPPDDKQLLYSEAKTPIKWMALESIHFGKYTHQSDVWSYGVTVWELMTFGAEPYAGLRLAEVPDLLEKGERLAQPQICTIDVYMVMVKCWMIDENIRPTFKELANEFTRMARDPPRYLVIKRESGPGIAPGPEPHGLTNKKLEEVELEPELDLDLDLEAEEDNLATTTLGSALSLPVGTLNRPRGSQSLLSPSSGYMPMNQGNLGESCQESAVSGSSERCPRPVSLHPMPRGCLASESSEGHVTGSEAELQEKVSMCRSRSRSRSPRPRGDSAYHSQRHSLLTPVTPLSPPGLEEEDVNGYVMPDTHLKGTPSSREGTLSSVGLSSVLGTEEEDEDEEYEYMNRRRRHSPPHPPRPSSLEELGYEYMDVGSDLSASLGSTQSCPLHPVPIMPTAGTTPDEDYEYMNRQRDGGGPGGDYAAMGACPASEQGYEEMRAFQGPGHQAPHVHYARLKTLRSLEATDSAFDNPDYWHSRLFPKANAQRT
UniProt Q15303, whole entry R711C: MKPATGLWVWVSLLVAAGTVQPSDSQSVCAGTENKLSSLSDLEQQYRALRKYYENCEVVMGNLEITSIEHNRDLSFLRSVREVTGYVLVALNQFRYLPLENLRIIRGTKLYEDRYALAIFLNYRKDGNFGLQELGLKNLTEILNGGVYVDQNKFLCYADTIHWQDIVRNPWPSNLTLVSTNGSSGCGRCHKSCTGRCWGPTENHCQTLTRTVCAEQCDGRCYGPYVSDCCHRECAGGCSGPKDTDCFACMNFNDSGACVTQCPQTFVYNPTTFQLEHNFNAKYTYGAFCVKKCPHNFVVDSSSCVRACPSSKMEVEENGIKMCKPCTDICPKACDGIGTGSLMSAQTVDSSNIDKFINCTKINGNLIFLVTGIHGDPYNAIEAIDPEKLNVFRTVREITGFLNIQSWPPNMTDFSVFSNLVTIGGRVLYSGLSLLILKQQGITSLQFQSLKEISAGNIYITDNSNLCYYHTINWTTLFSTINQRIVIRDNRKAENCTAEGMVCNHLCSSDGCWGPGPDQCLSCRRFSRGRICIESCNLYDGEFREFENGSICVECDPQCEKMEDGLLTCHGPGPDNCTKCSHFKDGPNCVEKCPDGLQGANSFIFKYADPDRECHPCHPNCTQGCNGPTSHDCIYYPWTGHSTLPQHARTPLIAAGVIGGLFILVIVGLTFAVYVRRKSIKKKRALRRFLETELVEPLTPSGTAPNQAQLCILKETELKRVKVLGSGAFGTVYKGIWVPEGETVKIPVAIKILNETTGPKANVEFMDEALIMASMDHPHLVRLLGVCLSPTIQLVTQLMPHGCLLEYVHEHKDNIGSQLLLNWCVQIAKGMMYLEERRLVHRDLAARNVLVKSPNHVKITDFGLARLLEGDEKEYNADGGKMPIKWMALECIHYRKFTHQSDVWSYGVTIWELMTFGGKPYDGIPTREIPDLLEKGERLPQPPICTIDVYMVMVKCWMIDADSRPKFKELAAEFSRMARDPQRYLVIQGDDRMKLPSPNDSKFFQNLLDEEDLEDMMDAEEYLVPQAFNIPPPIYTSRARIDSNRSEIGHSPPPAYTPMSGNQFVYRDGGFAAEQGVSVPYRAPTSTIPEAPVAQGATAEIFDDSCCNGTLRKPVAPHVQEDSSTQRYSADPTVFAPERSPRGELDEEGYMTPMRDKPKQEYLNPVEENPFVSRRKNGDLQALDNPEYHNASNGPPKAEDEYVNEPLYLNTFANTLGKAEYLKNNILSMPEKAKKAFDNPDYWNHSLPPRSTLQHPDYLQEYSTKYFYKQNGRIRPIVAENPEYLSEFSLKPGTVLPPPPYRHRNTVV
UniProt P11362, whole entry, looked up: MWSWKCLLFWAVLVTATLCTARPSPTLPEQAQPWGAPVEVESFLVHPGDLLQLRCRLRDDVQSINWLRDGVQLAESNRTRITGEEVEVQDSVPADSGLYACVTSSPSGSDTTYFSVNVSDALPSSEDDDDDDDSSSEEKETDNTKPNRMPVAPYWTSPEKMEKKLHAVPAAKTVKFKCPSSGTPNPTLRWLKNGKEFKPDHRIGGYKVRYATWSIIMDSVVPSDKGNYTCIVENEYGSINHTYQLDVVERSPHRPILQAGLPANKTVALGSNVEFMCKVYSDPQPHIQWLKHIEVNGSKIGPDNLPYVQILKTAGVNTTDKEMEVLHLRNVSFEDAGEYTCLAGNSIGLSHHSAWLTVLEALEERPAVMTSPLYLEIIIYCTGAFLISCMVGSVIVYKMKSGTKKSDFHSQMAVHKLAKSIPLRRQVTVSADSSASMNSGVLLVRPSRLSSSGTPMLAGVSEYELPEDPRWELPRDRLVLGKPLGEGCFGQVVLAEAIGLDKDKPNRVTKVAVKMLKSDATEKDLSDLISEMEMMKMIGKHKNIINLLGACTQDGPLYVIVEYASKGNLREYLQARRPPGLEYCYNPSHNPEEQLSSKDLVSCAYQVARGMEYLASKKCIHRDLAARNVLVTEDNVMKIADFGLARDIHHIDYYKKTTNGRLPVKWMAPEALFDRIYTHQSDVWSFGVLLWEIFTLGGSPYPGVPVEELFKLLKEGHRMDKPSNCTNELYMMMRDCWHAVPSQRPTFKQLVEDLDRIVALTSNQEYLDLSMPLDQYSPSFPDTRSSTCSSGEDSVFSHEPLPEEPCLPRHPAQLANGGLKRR
UniProt P22607, whole entry, looked up: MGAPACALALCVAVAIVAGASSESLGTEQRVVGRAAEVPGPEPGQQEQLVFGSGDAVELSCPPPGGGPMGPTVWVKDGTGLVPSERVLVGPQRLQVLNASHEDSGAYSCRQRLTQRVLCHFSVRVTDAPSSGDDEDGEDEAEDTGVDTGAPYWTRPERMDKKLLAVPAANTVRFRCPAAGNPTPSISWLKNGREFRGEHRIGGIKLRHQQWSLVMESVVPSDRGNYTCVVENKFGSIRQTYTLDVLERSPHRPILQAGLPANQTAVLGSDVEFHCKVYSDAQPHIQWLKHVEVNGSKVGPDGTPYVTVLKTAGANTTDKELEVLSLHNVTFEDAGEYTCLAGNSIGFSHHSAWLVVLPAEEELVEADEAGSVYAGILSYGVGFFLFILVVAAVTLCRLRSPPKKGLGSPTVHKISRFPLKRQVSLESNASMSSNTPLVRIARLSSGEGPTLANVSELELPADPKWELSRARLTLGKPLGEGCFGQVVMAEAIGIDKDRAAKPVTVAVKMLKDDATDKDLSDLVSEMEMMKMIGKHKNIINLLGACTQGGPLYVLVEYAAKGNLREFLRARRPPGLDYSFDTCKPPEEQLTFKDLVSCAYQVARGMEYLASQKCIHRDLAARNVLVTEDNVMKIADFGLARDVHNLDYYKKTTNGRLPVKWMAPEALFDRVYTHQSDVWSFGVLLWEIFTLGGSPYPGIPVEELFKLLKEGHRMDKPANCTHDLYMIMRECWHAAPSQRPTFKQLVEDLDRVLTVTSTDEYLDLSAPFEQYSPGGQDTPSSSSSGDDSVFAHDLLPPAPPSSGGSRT
UniProt P06241, whole entry, looked up: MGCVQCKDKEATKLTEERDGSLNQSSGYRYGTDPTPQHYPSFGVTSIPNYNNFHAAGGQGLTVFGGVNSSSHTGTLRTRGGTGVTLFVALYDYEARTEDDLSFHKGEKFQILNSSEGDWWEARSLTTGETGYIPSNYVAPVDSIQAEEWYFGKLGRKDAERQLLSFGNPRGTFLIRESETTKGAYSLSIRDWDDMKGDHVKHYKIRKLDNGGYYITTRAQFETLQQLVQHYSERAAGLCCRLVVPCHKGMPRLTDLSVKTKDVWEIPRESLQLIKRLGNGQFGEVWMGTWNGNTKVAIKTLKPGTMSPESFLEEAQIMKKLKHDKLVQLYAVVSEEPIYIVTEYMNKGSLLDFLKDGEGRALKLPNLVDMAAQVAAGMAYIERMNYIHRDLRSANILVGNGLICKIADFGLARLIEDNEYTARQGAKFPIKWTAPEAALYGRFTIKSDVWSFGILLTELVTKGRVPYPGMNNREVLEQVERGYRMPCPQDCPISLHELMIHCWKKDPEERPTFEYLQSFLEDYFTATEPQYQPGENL
UniProt P53671: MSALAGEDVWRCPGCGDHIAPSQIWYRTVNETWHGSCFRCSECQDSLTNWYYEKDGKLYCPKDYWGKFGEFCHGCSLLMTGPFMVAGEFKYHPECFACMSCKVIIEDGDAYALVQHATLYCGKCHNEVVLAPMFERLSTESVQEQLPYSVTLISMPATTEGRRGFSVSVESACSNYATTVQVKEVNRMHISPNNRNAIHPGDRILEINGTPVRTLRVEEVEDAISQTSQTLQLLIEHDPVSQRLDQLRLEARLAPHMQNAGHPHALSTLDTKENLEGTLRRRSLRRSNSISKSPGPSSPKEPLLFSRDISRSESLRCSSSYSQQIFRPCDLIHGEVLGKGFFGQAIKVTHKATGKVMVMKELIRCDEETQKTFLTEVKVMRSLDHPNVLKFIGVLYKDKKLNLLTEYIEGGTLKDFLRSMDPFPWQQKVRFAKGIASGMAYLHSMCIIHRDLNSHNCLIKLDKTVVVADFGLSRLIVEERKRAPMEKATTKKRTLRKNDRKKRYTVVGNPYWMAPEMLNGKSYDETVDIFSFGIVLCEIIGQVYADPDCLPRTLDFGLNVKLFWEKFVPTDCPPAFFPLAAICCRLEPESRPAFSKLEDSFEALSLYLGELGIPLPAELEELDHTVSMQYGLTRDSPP

Columns and labels:
Test in all cases: number of time points (of 5) at which kinase-Nluc abundance scored as decreased, DMSO-normalised (count); higher = more persistent destabilization
Settings in all cases: K562; 2-18 h
EGFR_L861Q = EGFR_L861Q (UniProt P00533)
EGFR_T790M = EGFR_T790M (UniProt P00533)
EPHA2 = EPHA2 (UniProt P29317)
ERBB3 = ERBB3 (UniProt P21860)
[1] = target: ERBB4_R711C (clone: ERBB4_mut) (UniProt Q15303)
ERN1 = ERN1 (UniProt O75460)
FGFR1 = FGFR1 (UniProt P11362)
FGFR2 = FGFR2 (UniProt P21802)
FGFR3 = FGFR3 (UniProt P22607)
FGR = FGR (UniProt P09769)
FLT3 = FLT3 (UniProt P36888)
FYN = FYN (UniProt P06241)
GSK3A = GSK3A (UniProt P49840)
HER2 = HER2 (UniProt P04626)
INSRR = INSRR (UniProt P14616)
IRAK3 = IRAK3 (UniProt Q9Y616)
JAK1 = JAK1 (UniProt P23458)
LCK = LCK (UniProt P06239)
LIMK1 = LIMK1 (UniProt P53667)
LIMK2 = LIMK2 (UniProt P53671)

| SMILES | number of time points (EGFR_L861Q) | number of time points (EGFR_T790M) | number of time points (EPHA2) | number of time points (ERBB3) | number of time points [1] | number of time points (ERN1) | number of time points (FGFR1) | number of time points (FGFR2) | number of time points (FGFR3) | number of time points (FGR) | number of time points (FLT3) | number of time points (FYN) | number of time points (GSK3A) | number of time points (HER2) | number of time points (INSRR) | number of time points (IRAK3) | number of time points (JAK1) | number of time points (LCK) | number of time points (LIMK1) | number of time points (LIMK2) |
| --- | --- | --- | --- | --- | --- | --- | --- | --- | --- | --- | --- | --- | --- | --- | --- | --- | --- | --- | --- | --- |
| COc1cc(F)cc([C@@H](CO)NC(=O)[C@@H](C)N2Cc3ccc(-c4nc(NC5CCOCC5)ncc4Cl)cc3C2=O)c1 [ERK1/2 inhibitor 2] (10 µM) | 0 | 0 | 0 | 2 | 0 | 0 | 0 | 0 | 0 | 0 | 0 | 0 | 0 | 0 | 0 | 0 | 0 | 0 | 0 | 0 |
| C=CC(=O)N1CCC[C@@H](n2nc(-c3ccc(Oc4ccccc4)cc3)c(C(N)=O)c2N)C1 [Btk inhibitor 2] (10 µM) | 0 | 0 | 0 | 0 | 0 | 0 | 0 | 0 | 0 | 0 | 0 | 0 | 0 | 0 | 0 | 0 | 0 | 0 | 0 | 0 |
| COc1cc2ncn(-c3cc(OCc4ccccc4C(F)(F)F)c(C(N)=O)s3)c2cc1OC (10 µM) | 1 | 0 | 1 | 0 | 0 | 0 | 0 | 0 | 0 | 0 | 0 | 0 | 0 | 0 | 0 | 0 | 0 | 0 | 0 | 0 |
| O=C1NC(=NCc2cccs2)S/C1=C\c1ccc2ncccc2c1 (10 µM) | 0 | 0 | 0 | 0 | 0 | 0 | 0 | 0 | 0 | 0 | 0 | 0 | 0 | 0 | 0 | 0 | 0 | 0 | 0 | 0 |
| CCN(CCCOc1ccc2c(Nc3cc(CC(=O)Nc4cccc(F)c4)[nH]n3)ncnc2c1)CCOP(=O)(O)O [Barasertib] (10 µM) | 0 | 0 | 0 | 0 | 1 | 0 | 0 | 0 | 0 | 0 | 0 | 3 | 0 | 0 | 0 | 0 | 0 | 0 | 2 | 0 |
| CN(C)CCOc1ccc(-c2nc(-c3ccncc3)c(-c3ccc4c(c3)CC/C4=N\O)[nH]2)cc1 (10 µM) | 0 | 0 | 0 | 0 | 0 | 0 | 0 | 0 | 0 | 0 | 0 | 0 | 0 | 0 | 0 | 0 | 0 | 0 | 0 | 0 |
| C[C@H](CN(C)C)Oc1nc(Nc2cc3cccc(Cl)c3cn2)cnc1C#N (10 µM) | 0 | 0 | 0 | 0 | 0 | 0 | 0 | 0 | 0 | 0 | 0 | 0 | 0 | 0 | 0 | 0 | 0 | 0 | 0 | 0 |
| CCOc1cc2ncc(-c3cc(N)nc(F)c3)n2cc1S(=O)(=O)C(C)(C)C (10 µM) | 0 | 0 | 0 | 0 | 0 | 0 | 0 | 0 | 0 | 0 | 0 | 0 | 0 | 0 | 0 | 0 | 0 | 0 | 0 | 0 |
| COc1cc(C(=O)NC2CCN(C)CC2)c(F)cc1Nc1ncc2c(n1)N(C1CCCC1)CC(F)(F)C(=O)N2C [TAK-960 (dihydrochloride)] (2.5 µM) | 0 | 0 | 0 | 0 | 0 | 0 | 0 | 0 | 0 | 0 | 0 | 0 | 0 | 0 | 1 | 0 | 1 | 0 | 0 | 0 |
| Brc1c(Br)c(Br)c2n[nH]nc2c1Br (10 µM) | 0 | 0 | 0 | 0 | 0 | 0 | 0 | 0 | 0 | 0 | 0 | 0 | 0 | 0 | 0 | 0 | 0 | 0 | 0 | 0 |
| Cc1cc(CS(=O)(=O)c2ccccc2)cc(OCc2ccc(CN3CCC[C@@H]3CO)cc2)c1 [PF-543 (Citrate)] (10 µM) | 0 | 0 | 0 | 0 | 0 | 0 | 0 | 0 | 0 | 0 | 0 | 0 | 0 | 0 | 0 | 0 | 0 | 0 | 0 | 0 |
| Nc1nc(N)c(N=O)c(OCC2CCCCC2)n1 (10 µM) | 0 | 0 | 0 | 0 | 4 | 0 | 0 | 0 | 0 | 0 | 0 | 0 | 0 | 0 | 0 | 0 | 0 | 0 | 0 | 0 |
| CC(C)c1cnn2c(NCc3ccccc3)cc(NC[C@H]3CCNC[C@@H]3O)nc12 [Samuraciclib (hydrochloride)] (10 µM) | 0 | 0 | 0 | 0 | 0 | 0 | 0 | 0 | 0 | 0 | 0 | 0 | 0 | 0 | 0 | 0 | 0 | 0 | 0 | 0 |
| CC(C)Oc1cc(Nc2nc(N[C@@H](C)c3ccc(F)cn3)ncc2Cl)n[nH]1 (10 µM) | 0 | 0 | 0 | 0 | 0 | 0 | 0 | 0 | 0 | 0 | 0 | 0 | 0 | 0 | 0 | 0 | 0 | 0 | 0 | 0 |
| COc1c(Cl)cc2c([nH]c3cnccc32)c1NC(=O)c1cccnc1C (10 µM) | 0 | 0 | 0 | 0 | 0 | 0 | 0 | 0 | 0 | 0 | 0 | 0 | 0 | 0 | 0 | 0 | 0 | 0 | 0 | 0 |
| COc1cc2ncnc(Nc3cccc(O)c3)c2cc1OC (10 µM) | 2 | 1 | 0 | 3 | 3 | 2 | 2 | 3 | 1 | 0 | 4 | 2 | 1 | 2 | 3 | 3 | 3 | 0 | 4 | 1 |
| Cc1nc(-c2cnc(NC(C)C)n(C)c2=O)ccc1Oc1ccnc(-c2cnn(C)c2)c1 (2.5 µM) | 0 | 0 | 0 | 0 | 2 | 0 | 0 | 0 | 0 | 0 |  | 0 | 0 | 0 | 0 | 0 | 0 |  | 0 | 0 |
| CN(C)Cc1ccc(-c2cnn3c(-c4cccc(NC(=O)c5cccc(C(F)(F)F)c5)c4)ccnc23)cc1 (2.5 µM) | 0 | 0 | 0 | 0 | 0 | 0 | 0 | 0 | 0 | 0 | 0 | 0 | 0 | 5 | 0 | 0 | 0 | 0 | 0 | 0 |
| COc1ccc(COc2ccc(Cc3cnc(N)nc3N)cc2OC)cc1 (10 µM) | 0 | 0 | 0 | 0 | 0 | 0 | 0 | 0 | 0 | 0 | 0 | 0 | 0 | 0 | 0 | 0 | 0 | 0 | 0 | 0 |
| Cc1ncc(-c2ccnc(Nc3ccc(S(C)(=O)=O)cc3)n2)n1C(C)C (2.5 µM) | 1 | 0 | 0 | 0 | 3 | 0 | 0 | 1 | 0 | 0 | 3 | 0 | 1 | 2 | 0 | 2 | 2 | 0 | 0 | 0 |
| COc1ccc2c(C(=O)Nc3ccc(NC(=O)c4nn(C5CCN(C(=O)CC(C)(C)C#N)CC5)c5ccc(F)cc45)cc3Cl)cnn2c1 [Src Inhibitor 3] (2.5 µM) | 2 | 1 | 1 | 3 | 2 | 1 | 1 | 3 | 2 | 4 | 2 | 2 | 0 | 1 | 3 | 2 | 1 |  | 2 | 2 |
| COc1ccc(NC(=O)N2CCN(c3nc(N)nc4c3cnn4C)[C@@H](C)C2)c(C)c1 (10 µM) | 0 | 0 | 0 | 0 | 0 | 0 | 0 | 0 | 0 | 0 | 0 | 0 | 0 | 0 | 0 | 0 | 0 | 0 | 0 | 0 |
| CN1CCN(c2ccc(C(=O)Nc3n[nH]c4ccc(Cc5cc(F)cc(F)c5)cc34)c(NC3CCOCC3)c2)CC1 [Entrectinib] (2.5 µM) | 0 | 0 | 0 | 0 | 0 | 0 | 0 | 0 | 0 | 0 | 0 | 0 | 0 | 0 | 0 | 0 | 0 |  | 0 | 0 |
| COc1cc(OC)c(F)c(COc2cnc(Nc3cnn(CCO)c3)nc2)c1F (2.5 µM) | 2 | 0 | 0 | 0 | 2 | 0 | 0 | 0 |  | 0 | 0 | 0 | 0 | 1 | 1 | 0 | 2 | 0 | 1 | 3 |

2 compounds from above with just number of time points (LIMK2), number of time points (HER2) and number of time points (FLT3).
SMILES	number of time points (LIMK2)	number of time points (HER2)	number of time points (FLT3)
Cc1ncc(-c2ccnc(Nc3ccc(S(C)(=O)=O)cc3)n2)n1C(C)C (2.5 µM)	0	2	3
COc1ccc2c(C(=O)Nc3ccc(NC(=O)c4nn(C5CCN(C(=O)CC(C)(C)C#N)CC5)c5ccc(F)cc45)cc3Cl)cnn2c1 [Src Inhibitor 3] (2.5 µM)	2	1	2
